PubChem BioAssay AID1259314, Drosophila RNAi Screening Center, 2017
Here is an unselected part of about 3,100 reagents. 289 of them (9.3%) were called active. 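Active includes both higher and lower ATP than plate average; check the z-score sign for direction.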 Entries without a mark were called inactive. The numbers tell different reagents against one gene apart. Names joined by + are all predicted targets of the reagent. Not given: the amount of reagent.

Aim: 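Transmembrane protein genes affecting ATP after manganese overload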 (primary screen)
Cells: Drosophila S2R+ cells
Knock-down reagent: long dsRNA against Drosophila genes
Time to read-out: 5 days (4 days knock-down, then 1 day metal exposure)
Conditions: manganese chloride added to 15 mM for 24 hours
Measurement: 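Luciferase ATP signal used as a proxy for viable cell number, reported as one averaged z-score per dsRNA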
Reading the numbers: mean ATP z-score: higher = more ATP than the plate average, more viable cells under manganese
Call rule: 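a mean ATP z-score past 1.5 in either direction is called active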
Calls: active = strong ATP change, up or down; inactive = no strong ATP change

gene,reagent,mean ATP z-score
Grl43a (Gustatory receptor-like 43a),1,0.69
Ndc1 (Nuclear division cycle 1),1,-0.129
Ndc1 (Nuclear division cycle 1),2,0.113
CG13654,1,-0.31
CG13654,2,0.0212
CG5250,1,-0.222
CG5250,2,-0.44
CG2187,1,-0.0379
CG2187,2,0.235
PK2-R2 (Pyrokinin 2 receptor 2),1,-0.351
PK2-R2 (Pyrokinin 2 receptor 2),2,0.683
CG10481,1,-0.768
CG10481,2,0.41
CG7384,1,0.0794
CG10804,1,1.1
CG10804,2,0.148
Sc2,1,2.31 (active)
Sc2,2,-0.575
Tmem63 (Transmembrane protein 63),1,0.286
Tmem63 (Transmembrane protein 63),2,-0.383
CG31523,1,0.777
CG31523,2,0.844
GluRIB (Glutamate receptor IB),1,-1.64 (active)
GluRIB (Glutamate receptor IB),2,-1.5 (active)
CG10165,1,-0.562
Kua,1,0.0229
CG17928,1,0.113
CG17928,2,1.67 (active)
rst (roughest),1,-1.01
rst (roughest),2,0.0816
rst (roughest),3,-1.05
Or85a (Odorant receptor 85a),1,-0.0577
CG6749,1,-1.17
CG6749,2,-1
CG10864,1,-0.149
Ant2 (Adenine nucleotide translocase 2),1,-1.75 (active)
Dh44-R2 (Diuretic hormone 44 receptor 2),1,0.977
CG43373,1,-1.64 (active)
ft (fat),1,-0.751
ft (fat),2,0.0722
sina + Rh4,1,1.93 (active)
gcl (germ cell-less),1,0.78
gcl (germ cell-less),2,-0.607
"Trpm (Transient receptor potential cation channel, subfamily M)",1,0.506
"Trpm (Transient receptor potential cation channel, subfamily M)",2,0.145
"Trpm (Transient receptor potential cation channel, subfamily M)",3,2.07 (active)
wfs1 (wolfram syndrome 1),1,0.4

A few values from the entries so far:
Kua, mean ATP z-score: 0.0229
Value of rst (roughest) #3 under “mean ATP z-score”: -1.05
wfs1 (wolfram syndrome 1), mean ATP z-score → 0.4
Result of CG10481 #1 under “mean ATP z-score”: -0.768
PK2-R2 (Pyrokinin 2 receptor 2) #2, mean ATP z-score → 0.683
Under “mean ATP z-score”, Grl43a (Gustatory receptor-like 43a) is entered as 0.69

The listing continues:
gene,reagent,mean ATP z-score
nAChRalpha4 (nicotinic Acetylcholine Receptor alpha4),1,0.381
nAChRalpha4 (nicotinic Acetylcholine Receptor alpha4),2,0.205
CG16727,1,1.44
CG16727,2,1.54 (active)
Tret1-1 (Trehalose transporter 1-1),1,-0.485
Tret1-1 (Trehalose transporter 1-1),2,-0.00471
CG30047,1,-0.405
Ndae1 (Na[+]-driven anion exchanger 1),1,2.14 (active)
Ndae1 (Na[+]-driven anion exchanger 1),2,-0.115
wit (wishful thinking),1,0.466
wit (wishful thinking),2,-0.343
wit (wishful thinking),3,-0.843
nSyb (neuronal Synaptobrevin),1,-0.373
nSyb (neuronal Synaptobrevin),2,0.729
Gr36a (Gustatory receptor 36a),1,0.466
Gr36a (Gustatory receptor 36a),2,-0.451
CG3339,1,-0.875
CG3339,2,-0.481
CG33110,1,-0.47
CG33110,2,1.33
CG12490 + CG30265,1,-0.336
CG13579,1,1.3
CG13579,2,0.0309
Nrt (Neurotactin),1,-0.518
Arms (Ankyrin repeat-rich membrane spanning),1,-0.203
Arms (Ankyrin repeat-rich membrane spanning),2,-1.4
Rh7 (Rhodopsin 7),1,-1.81 (active)
Rh7 (Rhodopsin 7),2,-2.38 (active)
GluRIA (Glutamate receptor IA),1,-0.98
Spg7 (Paraplegin),1,-1.01
Spg7 (Paraplegin),2,-0.212
CG32053,1,-0.417
Flo1 (Flotillin 1),1,0.974
Flo1 (Flotillin 1),2,0.967
Vha16-5 (Vacuolar H[+] ATPase 16kD subunit 5),1,1.64 (active)
sNPF-R (short neuropeptide F receptor),1,-0.59
CG32091,1,-0.661
CG32091,2,-0.4
CG3792,1,-0.767
CG4607,1,0.273
alphaKap4 (alpha Karyopherin-4),1,-0.453
alphaKap4 (alpha Karyopherin-4),2,-0.191
CG31663,1,-0.792
CG31663,2,-0.535
CG31663,3,0.448
CG31663,4,-0.996
mnd (minidiscs),1,-1.35
mnd (minidiscs),2,-1.19
Elk (Eag-like K[+] channel),1,2.06 (active)
Elk (Eag-like K[+] channel),2,0.492
PIG-N (Phosphatidylinositol glycan anchor biosynthesis class N),1,-0.314
Zip71B (Zinc/iron regulated transporter-related protein 71B),1,-0.859
Zip71B (Zinc/iron regulated transporter-related protein 71B),2,-0.332
ninaD (neither inactivation nor afterpotential D),1,-0.455
ninaD (neither inactivation nor afterpotential D),2,-0.339
S (Star),1,-1.01
S (Star),2,-0.0636
CG1213,1,0.0867
wdp (windpipe),1,0.298
CG15221,1,-0.0573
COX7AL (Cytochrome c oxidase subunit 7A-like),1,-0.311
Or45b (Odorant receptor 45b),1,0.128
Or45b (Odorant receptor 45b),2,-0.229
CG14778,1,0.65
CG14778,2,1.92 (active)
CG45049,1,1.99 (active)
CG45049,2,-0.417
ppk3 (pickpocket 3),1,0.51
ppk3 (pickpocket 3),2,0.428
SsRbeta (Signal sequence receptor beta),1,0.324
CG8249,1,-0.256
CG8249,2,0.153
CG5326,1,-0.0274
CG5326,2,-0.414
CG8654,1,3.56 (active)
nrv1 (nervana 1),1,-1.64 (active)
Arts + Apl,1,1.68 (active)
sas (stranded at second),1,-0.826
prt (portabella),1,-0.685
prt (portabella),2,-0.641
Gr59b (Gustatory receptor 59b),1,0.203
GABA-B-R3 (metabotropic GABA-B receptor subtype 3),1,-0.607
GABA-B-R3 (metabotropic GABA-B receptor subtype 3),2,0.871
Trpgamma (Transient receptor potential cation channel gamma),1,-0.296
Trpgamma (Transient receptor potential cation channel gamma),2,-0.871
Shawl (Shaw-like),1,-0.186
Shawl (Shaw-like),2,-0.938
Shawl (Shaw-like),3,-0.744
CG12290,1,0.00621
CG12290,2,0.273
CG5554,1,1.19
CG5554,2,-0.113
Vha16-2 (Vacuolar H[+] ATPase 16kD subunit 2),1,-0.719
Vha16-2 (Vacuolar H[+] ATPase 16kD subunit 2),2,1.33
